Measured values: the supplement of paper PMC6078165

Test system: MDAMB231
Test: relative JC-1 red fluorescence (viability) vs pre-drug, coculture with fibroblast (fraction); higher = more viable cancer cells
Description: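 JC-1 labelled TNBC cells cocultured 1:1 (1,500 cells each) with CellTrace Violet stained primary or stromal fibroblasts in 384-well plates in FluoroBrite medium, treated with one of 42 anticancer drugs at 0.1, 1, 10 or 100 uM. JC-1 red fluorescence (mitochondrial integrity in cancer cells only) was read by plate reader every 8 h for 72 h. Values are normalised to each well's pre-drug value. The stock of one drug was tenfold lower, so its dose labels may be too high.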

O=C(O)C1(C(=O)O)CCC1.[NH2-].[NH2-].[Pt+2] [Carboplatin]
relative JC-1 red fluorescence
Settings | 8 h | 16 h | 24 h | 32 h | 40 h | 48 h | 56 h | 64 h | 72 h
0.1 µM, coculture fibroblast: C12385 | 0.776 | 0.737 | 0.655 | 0.618 | 0.555 | 0.525 | 0.479 | 0.475 | 0.455
0.1 µM, coculture fibroblast: H6013 | 0.88005 | 0.817 | 0.777 | 0.774 | 0.734 | 0.724 | 0.7 | 0.682 | 0.636
0.1 µM, coculture fibroblast: H6019 | 0.756 | 0.6713 | 0.635 | 0.604 | 0.563 | 0.549 | 0.501 | 0.483 | 0.439
0.1 µM, coculture fibroblast: H6076 | 0.889 | 0.802 | 0.743 | 0.722 | 0.667 | 0.634 | 0.601 | 0.586 | 0.572
0.1 µM, coculture fibroblast: H6231 | 0.901 | 0.802 | 0.715 | 0.664 | 0.605 | 0.568 | 0.521 | 0.5002 | 0.4727
0.1 µM, coculture fibroblast: HADF | 0.885 | 0.851 | 0.8 | 0.7756 | 0.75 | 0.712 | 0.686 | 0.668 | 0.631
0.1 µM, coculture fibroblast: HCFa | 0.878 | 0.81 | 0.745 | 0.697 | 0.648 | 0.599 | 0.564 | 0.532 | 0.498
0.1 µM, coculture fibroblast: HCPF | 0.8956 | 0.791 | 0.697 | 0.674 | 0.611 | 0.564 | 0.519 | 0.482 | 0.46
0.1 µM, coculture fibroblast: HHSteC | 0.8987 | 0.832 | 0.778 | 0.726 | 0.673 | 0.648 | 0.607 | 0.577 | 0.54
0.1 µM, coculture fibroblast: HMF | 0.867 | 0.7658 | 0.6742 | 0.638 | 0.581 | 0.538 | 0.492 | 0.472 | 0.45
0.1 µM, coculture fibroblast: HPFa | 0.948 | 0.91 | 0.841 | 0.786 | 0.747 | 0.694 | 0.644 | 0.612 | 0.568
0.1 µM, coculture fibroblast: HUF | 0.803 | 0.691 | 0.653 | 0.526 | 0.46 | 0.43 | 0.385 | 0.374 | 0.354
0.1 µM, coculture fibroblast: Hs5 | 0.851 | 0.76 | 0.698 | 0.655 | 0.612 | 0.558 | 0.522 | 0.49 | 0.464
0.1 µM, coculture fibroblast: Hs27A | 0.86277 | 0.81428 | 0.7689 | 0.75 | 0.699 | 0.622 | 0.62 | 0.596 | 0.545
0.1 µM, coculture fibroblast: Hs343T | 0.88 | 0.809 | 0.714 | 0.685 | 0.626 | 0.576 | 0.529 | 0.502 | 0.475
0.1 µM, coculture fibroblast: WS1 | 0.7587 | 0.696 | 0.594 | 0.553 | 0.495 | 0.466 | 0.419 | 0.397 | 0.371
1 µM, coculture fibroblast: C12385 | 0.7436 | 0.714 | 0.678 | 0.62 | 0.496 | 0.516 | 0.499 | 0.506 | 0.495
1 µM, coculture fibroblast: H6013 | 0.893 | 0.8222 | 0.777 | 0.755 | 0.718 | 0.69 | 0.666 | 0.642 | 0.588
1 µM, coculture fibroblast: H6019 | 0.765 | 0.703 | 0.677 | 0.657 | 0.623 | 0.603 | 0.55 | 0.516 | 0.467
1 µM, coculture fibroblast: H6076 | 0.854 | 0.798 | 0.762 | 0.748 | 0.703 | 0.673 | 0.653 | 0.63 | 0.609
1 µM, coculture fibroblast: H6231 | 0.9173 | 0.826 | 0.803 | 0.762 | 0.718 | 0.687 | 0.649 | 0.629 | 0.595
1 µM, coculture fibroblast: HADF | 0.8845 | 0.8237 | 0.7818 | 0.739 | 0.701 | 0.67 | 0.645 | 0.6348 | 0.581
1 µM, coculture fibroblast: HCFa | 0.859 | 0.825 | 0.778 | 0.736 | 0.684 | 0.631 | 0.592 | 0.556 | 0.505
1 µM, coculture fibroblast: HCPF | 0.8788 | 0.763 | 0.707 | 0.685 | 0.62 | 0.586 | 0.558 | 0.531 | 0.509
1 µM, coculture fibroblast: HHSteC | 0.872 | 0.835 | 0.793 | 0.734 | 0.683 | 0.659 | 0.618 | 0.588 | 0.545
1 µM, coculture fibroblast: HMF | 0.8645 | 0.77 | 0.7 | 0.656 | 0.604 | 0.56 | 0.523 | 0.503 | 0.478
1 µM, coculture fibroblast: HPFa | 0.931 | 0.86 | 0.799 | 0.7361 | 0.7019 | 0.658 | 0.598 | 0.558 | 0.498
1 µM, coculture fibroblast: HUF | 0.837 | 0.733 | 0.701 | 0.583 | 0.5146 | 0.488 | 0.439 | 0.42 | 0.4
1 µM, coculture fibroblast: Hs5 | 0.856 | 0.783 | 0.714 | 0.6623 | 0.617 | 0.556 | 0.517 | 0.486 | 0.455
1 µM, coculture fibroblast: Hs27A | 0.8773 | 0.8263 | 0.7886 | 0.7528 | 0.7033 | 0.646 | 0.638 | 0.622 | 0.565
1 µM, coculture fibroblast: Hs343T | 0.823 | 0.703 | 0.627 | 0.583 | 0.526 | 0.473 | 0.436 | 0.42 | 0.396
1 µM, coculture fibroblast: WS1 | 0.7106 | 0.655 | 0.564 | 0.51 | 0.453 | 0.4209 | 0.376 | 0.364 | 0.337

Values are relative to the signal before dosing, not to a vehicle control; the signal also falls without drug.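 Labels refer to human fibroblasts, largely primary: uterine (C12385, HUF), lung (H6013), bone (Hs27A), adrenal (HADF), skin (WS1), plus mammary HMF and breast cancer-associated Hs343T. Cancer lines are basal-like or mesenchymal-like triple-negative breast cancer. The paper counts as hits responses shifting over 3x the replicate standard deviation. The tissue of the other fibroblasts is not given here.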
